According to PubChem BioAssay AID540303 (National Center for Advancing Translational Sciences (NCATS), 2011):
About 1,000 (0.3%) of roughly 330,000 compounds were called active. Inconclusive means that the source gave no clear call. Such entries were picked first, then a sample of the others. Calls come from the whole dose curve; as a rule, active = well fitted inhibition curve with a large enough effect; inconclusive = small, poorly fitted or top-dose-only effect; inactive = no such curve, though single readings can be large or run the other way; tested in mouse RAW 264.7 cells. Potencies of inconclusive entries are doubtful fits and often do not repeat.

Test: qHTS for Inhibitors of Cell Surface uPA Generation; note: nearly all actives have a fitted effect of over 55% in size
Details: cell surface uPA generation assay; series mostly up to 38.3 µM; activity change, negative = inhibition: at the top concentration
Outline: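 ATP-Lite luminescence in RAW 264.7 cells after 24 h of exposure to compound, tested up to 38.3 uM final in 1:5 steps. Raised ATP reflects inhibition of uPA-dependent LF delivery to the cytoplasm.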
% is set by controls: 0 for no effect and ±100 for the full control effect; potency is the fitted concentration of half-maximal effect.

SMILES | Potency | activity change, negative = inhibition
COc1cc(OC)c(/C=C2\C(=O)Nc3ccccc32)c(OC)c1 | active: 7.94 µM | –
Cc1ccc(C(=O)O)cc1N1C(=O)c2cccc3c([N+](=O)[O-])ccc(c23)C1=O | inconclusive: 28.2 µM [inhibitor, single point] | –
Cc1ccc(CNS(=O)(=O)NCc2cccs2)cc1 | – | inactive: 7.71%
Nc1c(-c2ccccc2)cnc2c(-c3ccccc3)cnn12 | inconclusive: 1.12 µM [inhibitor, full curve, poor fit] | –
NS(=O)(=O)c1ccc(NC(=O)c2c(Cl)cccc2Cl)cc1 | – | inactive: -0.0888%
Cc1ccc(Nc2ncccc2C(=O)O)cc1C | inconclusive: 7.08 µM [inhibitor, single point] | –
O=C(COc1ccc(NC(=O)c2cccs2)cc1)c1ccc(F)cc1 | inconclusive: 7.94 µM [inhibitor, partial curve, poor fit] | –
CC(C)CN1CN(Cc2ccccc2)CNC1=S | – | inactive: 6.32%
O=C(CN1CCN(C(c2ccccc2)c2ccccc2)CC1)N1CCN(c2ccccc2)CC1 | – | inactive: 11.1%
COC(=O)C1=C(C)N(Cc2ccccc2)C(=NCCc2cccnc2)N[C@H]1c1ccccc1 | inconclusive: 10 µM [inhibitor, single point] | –
O=Nc1c(-c2ccccc2)[nH]n(-c2ccccc2)c1=O | – | inactive: -2.13%
CC(=O)/C=C\c1ccccc1OC(=O)c1cc2ccccc2oc1=O | inconclusive: 0.0126 µM [inhibitor, full curve, poor fit] | –
COc1cccc(CCNC(=O)c2cc(COc3c(F)cccc3F)on2)c1 | inconclusive: 12.6 µM [inhibitor, single point] | –
O=C(Nc1ccc(N2CCCCCC2)cc1)c1ccc[nH]1 | inconclusive: 5.01 µM [inhibitor, partial curve, poor fit] | –
CC(C)C[C@H](NC(=O)OC(C)(C)C)C(=O)N[C@@H](CO)[C@H](O)[C@@H]1C[C@@H]1C(=O)NC1CCCCC1 | inconclusive: 1.12 µM [inhibitor, single point] | –
CCOC(=O)CCSc1nc(-c2ccc3c(c2)OCO3)cc(C(F)(F)F)c1C#N | – | inactive: 4.17%
Cc1ccc(Sc2ccc(/C=C3/C(=O)NN(c4ccccc4)C3=O)o2)cc1 | inconclusive: 1.26 µM [inhibitor, single point] | –
O=C(Cn1ncc(N2CCOCC2)c(Br)c1=O)c1ccc(Cl)cc1 | inconclusive: 12.6 µM [inhibitor, partial curve, poor fit] | –
Cc1ccccc1OCC(=O)N1CCCc2ccccc21 | – | inactive: -5.39%
COc1ccccc1N(Cc1ccccc1)S(=O)(=O)c1cc(C(=O)O)ccc1Cl | – | inactive: -20.4%
CC(=O)N1CCc2cc(S(=O)(=O)CCC(=O)NCc3ccc(Cl)cc3)ccc21 | – | inactive: -0.493%
CCCN(CCC)S(=O)(=O)c1ccc(C(=O)Nc2nnc(COC)o2)cc1 | inconclusive: 6.31 µM [inhibitor, partial curve, poor fit] | –
COc1cc(OC)cc(C(=O)NCC2CCCN(C(=O)c3oc(C)cc3C)C2)c1 (stereo not drawn) | – | inactive: 1.18%

SMILES | Potency | activity change, negative = inhibition
CC(C)C1OC2c3cccc4cccc(c34)C2N1c1ccccc1 (stereo not drawn) | – | inactive: 4.31%
CCN1CCN(C(C(=O)NC2CCCCC2)c2ccc(Cl)cc2)CC1 (stereo not drawn) | – | inactive: 1.12%
Cc1nc2cc(C(=O)OCC(=O)NC(C)C(C)C)ccc2n1-c1ccccc1 (stereo not drawn) | – | inactive: -6.29%
Cc1ccc(C)c(Cn2nnc3c(=O)[nH]c(C4CCN(C(=O)c5ccco5)CC4)nc32)c1 | – | inactive: -2.14%
Oc1c(Cl)cc(Cl)c(Cl)c1Cc1c(O)c(Cl)cc(Cl)c1Cl | inconclusive: 7.94 µM [inhibitor, single point] | –
O=C(NCc1cccnc1)/C(=C\c1ccc(-c2cccc(Cl)c2)o1)S(=O)(=O)c1ccccc1 | inconclusive: 6.31 µM [inhibitor, partial curve, poor fit] | –
Cc1ccc(C=Nc2cccnc2N)cc1 | inconclusive: 14.1 µM [inhibitor, single point] | –
O=[N+]([O-])c1ccc(N2CCN(C(=S)Nc3cccc(F)c3)CC2)cc1 | inconclusive: 31.6 µM [inhibitor, single point] | –
CCN(c1ccccc1)S(=O)(=O)c1ccc(C(=O)N(CCCN(C)C)c2nc3cc4c(cc3s2)OCO4)cc1 | inconclusive: 17.8 µM [inhibitor, partial curve, poor fit] | –
O=c1c(-c2ccc(O)cc2)coc2cc(OC3OC(CO)C(O)C(O)C3O)ccc12 (stereo not drawn) | inconclusive: 11.2 µM [inhibitor, single point] | –
CC(C)(C)OC(=O)NCCCCCc1cn([C@@H](CO)C(=O)NCCCCCCCCCCC(=O)N2CCN(C(=O)OC(C)(C)C)CC2)nn1 | active: 11.2 µM | –
CCN(CC)c1nc(C(F)(F)F)nc2c1nnn2Cc1ccccc1 | inconclusive: 0.355 µM [inhibitor, full curve, poor fit] | –
NCCCC(=O)N1c2ccccc2Sc2ccccc21 | inconclusive: 14.1 µM [inhibitor, partial curve, poor fit] | –
CCOc1ccc(Nc2nc3cc(S(=O)(=O)N(CC)CC)ccc3o2)cc1 | – | inactive: -13.9%
CN(NC1OC(=O)c2ccccc21)c1ncc(C(F)(F)F)cc1Cl (stereo not drawn) | inconclusive: 11.2 µM [inhibitor, single point] | –
CCO[C@H]1OC(C(=O)N2CCN(Cc3ccc4c(c3)OCO4)CC2)=C[C@@H](c2csc3ccccc23)[C@@H]1CCCO | inconclusive: 28.2 µM [inhibitor, single point] | –
CCC(CC)c1nnc(NC(=O)CCNC(=O)c2ccccc2Cl)s1 | – | inactive: 3.03%
COc1ccc(C(=O)/C=C2/c3ccccc3CC(C)(C)N2C)cc1 | inconclusive: 2.82 µM [inhibitor, full curve, poor fit] | –
CC1CC(C)CN(S(=O)(=O)c2ccc3c(c2)oc(=O)n3CC(=O)N(C)Cc2ccccc2)C1 (stereo not drawn) | – | inactive: -9.04%
Cc1ccccc1N=C1NN=C(c2ccccc2F)CS1 | inconclusive: 10 µM [inhibitor, single point] | –
CN(CC(=O)Nc1ccc(Cl)c(C(F)(F)F)c1)C(=O)C1CCN(C(=O)c2ccc(Cl)cc2)CC1 | inconclusive: 22.4 µM [inhibitor, single point] | –
O=C(C[C@@H]1NS(=O)(=O)OC2CCCCC21)c1ccccc1 (stereo partly drawn) | inconclusive: 5.62 µM [inhibitor, partial curve] | –
CSc1nnc(N2C(=O)C(O)=C(C(=O)c3ccco3)C2c2ccccc2)s1 (stereo not drawn) | inconclusive: 12.6 µM [inhibitor, single point] | –

4 entries from above, field by field.
Cc1ccc(C)c(Cn2nnc3c(=O)[nH]c(C4CCN(C(=O)c5ccco5)CC4)nc32)c1
  activity change, negative = inhibition: inactive: -2.14%
CCN(CC)c1nc(C(F)(F)F)nc2c1nnn2Cc1ccccc1
  Potency: inconclusive: 0.355 µM [inhibitor, full curve, poor fit]
CCOc1ccc(Nc2nc3cc(S(=O)(=O)N(CC)CC)ccc3o2)cc1
  activity change, negative = inhibition: inactive: -13.9%
CCO[C@H]1OC(C(=O)N2CCN(Cc3ccc4c(c3)OCO4)CC2)=C[C@@H](c2csc3ccccc23)[C@@H]1CCCO
  Potency: inconclusive: 28.2 µM [inhibitor, single point]

Further compounds

SMILES | Potency | activity change, negative = inhibition
Cn1ncc([N+](=O)[O-])c1C(=O)Nc1cccc(Cl)c1 | inconclusive: 11.2 µM [inhibitor, partial curve, poor fit] | –
Cn1c2ccccc2c2nnc(SCC(=O)Nc3cccc(O)c3)nc21 | inconclusive: 28.2 µM [inhibitor, single point] | –
N#Cc1c(N)n(Cc2ccccc2)c(=O)c2cc([N+](=O)[O-])ccc12 | – | inactive: 0.478%
CC(C)N1CCc2c(sc(NC(=O)c3ccc(S(=O)(=O)N4CCc5ccccc54)cc3)c2C(N)=O)C1 | inconclusive: 10 µM [inhibitor, single point] | –
O=C(CN1CCN(S(=O)(=O)c2cccc(Br)c2)CC1)NCCc1cccs1 | – | inactive: -2.04%
O=S(=O)(/N=C(/c1ccc(F)cc1)N1CCCCC1)c1ccc(Cl)cc1 | inconclusive: 8.91 µM [inhibitor, partial curve, poor fit] | –
CCN1CCN(c2ccc(Nc3ccnc4ccccc34)cc2)CC1 | inconclusive: 28.2 µM [inhibitor, single point] | –
CC1CCN(C(=O)c2nc[nH]c2C(=O)O[C@H](C)c2ccccc2)CC1 | – | inactive: -1.33%
CCOC(=O)C1=C(C)OC2(O)c3ccccc3C(=O)C12O (stereo not drawn) | inconclusive: 10 µM [inhibitor, single point] | –
COc1ccc(OCCSc2ncnc3nc[nH]c23)cc1 | inconclusive: 3.55 µM [inhibitor, partial curve, poor fit] | –
CC(Oc1cccc(Br)c1)C(=O)NNC(=O)c1ccccn1 (stereo not drawn) | inconclusive: 31.6 µM [inhibitor, partial curve, poor fit] | –
C/C(=N\NC(=O)c1cccc(O)c1)c1cccc(NC(=O)c2ccc(F)cc2)c1 | inconclusive: 6.31 µM [inhibitor, partial curve, poor fit] | –
CC(=O)Nc1ccc(S(=O)(=O)Oc2cccc(/C=C3\SC(N)=NC3=O)c2)cc1 | – | inactive: 2.01%
Cc1cc(C)c2cc(C#N)c(NCCNC(=S)NCCCN3CCOCC3)nc2c1 | inconclusive: 12.6 µM [inhibitor, partial curve, poor fit] | –
COC(=O)c1[nH]c2c(c1C)C(=O)CC(c1cc(OC)ccc1OC)C2 (stereo not drawn) | active: 5.62 µM | –
COc1ccc(N(C=O)C(C(=O)Nc2c(C)cccc2C)c2ccccc2)cc1 (stereo not drawn) | inconclusive: 8.91 µM [inhibitor, partial curve, poor fit] | –
COc1ccc(OC)c(N(CC(=O)Nc2cccnc2)S(=O)(=O)c2ccc(C)cc2)c1 | inconclusive: 10 µM [inhibitor, single point] | –
COc1ccc(-c2nc(CCNS(=O)(=O)c3ccc4c(c3)OCCO4)cs2)cc1 | – | inactive: 0.39%
O=C1CSC(c2cccnc2)N1CCc1ccccn1 (stereo not drawn) | – | inactive: -19.8%
CCOC(=O)c1nc(C)nc(Sc2n[nH]c(-c3ccccc3)n2)c1C | inconclusive: 4.47 µM [inhibitor, partial curve, poor fit] | –
Brc1ccc(-c2ccc(/C=N/Nc3nc4ccccc4[nH]3)o2)cc1 | active: 10 µM | –
CC#CC[N+](C)(C)CCCCCCCCCCCC | inconclusive: 3.55 µM [inhibitor, partial curve, poor fit] | –
